Source: PMC6486830
These are yes or no findings as the source states them, for the method shown. Binding seen in cells or lysates may run through a third protein. A yes stands for co-enrichment or nearness to the bait. Other partners may have been found.

Chains of the proteins cited; added tags and fusions are not shown.
UniProt Q61103: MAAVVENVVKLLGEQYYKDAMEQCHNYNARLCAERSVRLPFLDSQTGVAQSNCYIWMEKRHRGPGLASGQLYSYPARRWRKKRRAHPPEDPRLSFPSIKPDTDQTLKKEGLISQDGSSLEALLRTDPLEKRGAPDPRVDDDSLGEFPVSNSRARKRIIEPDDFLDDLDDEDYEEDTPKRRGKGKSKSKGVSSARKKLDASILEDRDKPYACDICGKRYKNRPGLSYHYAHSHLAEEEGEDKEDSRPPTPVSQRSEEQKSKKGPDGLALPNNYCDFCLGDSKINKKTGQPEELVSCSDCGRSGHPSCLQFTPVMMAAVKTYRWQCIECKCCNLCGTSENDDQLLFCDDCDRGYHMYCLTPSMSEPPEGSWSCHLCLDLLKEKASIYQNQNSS
UniProt A2BH40: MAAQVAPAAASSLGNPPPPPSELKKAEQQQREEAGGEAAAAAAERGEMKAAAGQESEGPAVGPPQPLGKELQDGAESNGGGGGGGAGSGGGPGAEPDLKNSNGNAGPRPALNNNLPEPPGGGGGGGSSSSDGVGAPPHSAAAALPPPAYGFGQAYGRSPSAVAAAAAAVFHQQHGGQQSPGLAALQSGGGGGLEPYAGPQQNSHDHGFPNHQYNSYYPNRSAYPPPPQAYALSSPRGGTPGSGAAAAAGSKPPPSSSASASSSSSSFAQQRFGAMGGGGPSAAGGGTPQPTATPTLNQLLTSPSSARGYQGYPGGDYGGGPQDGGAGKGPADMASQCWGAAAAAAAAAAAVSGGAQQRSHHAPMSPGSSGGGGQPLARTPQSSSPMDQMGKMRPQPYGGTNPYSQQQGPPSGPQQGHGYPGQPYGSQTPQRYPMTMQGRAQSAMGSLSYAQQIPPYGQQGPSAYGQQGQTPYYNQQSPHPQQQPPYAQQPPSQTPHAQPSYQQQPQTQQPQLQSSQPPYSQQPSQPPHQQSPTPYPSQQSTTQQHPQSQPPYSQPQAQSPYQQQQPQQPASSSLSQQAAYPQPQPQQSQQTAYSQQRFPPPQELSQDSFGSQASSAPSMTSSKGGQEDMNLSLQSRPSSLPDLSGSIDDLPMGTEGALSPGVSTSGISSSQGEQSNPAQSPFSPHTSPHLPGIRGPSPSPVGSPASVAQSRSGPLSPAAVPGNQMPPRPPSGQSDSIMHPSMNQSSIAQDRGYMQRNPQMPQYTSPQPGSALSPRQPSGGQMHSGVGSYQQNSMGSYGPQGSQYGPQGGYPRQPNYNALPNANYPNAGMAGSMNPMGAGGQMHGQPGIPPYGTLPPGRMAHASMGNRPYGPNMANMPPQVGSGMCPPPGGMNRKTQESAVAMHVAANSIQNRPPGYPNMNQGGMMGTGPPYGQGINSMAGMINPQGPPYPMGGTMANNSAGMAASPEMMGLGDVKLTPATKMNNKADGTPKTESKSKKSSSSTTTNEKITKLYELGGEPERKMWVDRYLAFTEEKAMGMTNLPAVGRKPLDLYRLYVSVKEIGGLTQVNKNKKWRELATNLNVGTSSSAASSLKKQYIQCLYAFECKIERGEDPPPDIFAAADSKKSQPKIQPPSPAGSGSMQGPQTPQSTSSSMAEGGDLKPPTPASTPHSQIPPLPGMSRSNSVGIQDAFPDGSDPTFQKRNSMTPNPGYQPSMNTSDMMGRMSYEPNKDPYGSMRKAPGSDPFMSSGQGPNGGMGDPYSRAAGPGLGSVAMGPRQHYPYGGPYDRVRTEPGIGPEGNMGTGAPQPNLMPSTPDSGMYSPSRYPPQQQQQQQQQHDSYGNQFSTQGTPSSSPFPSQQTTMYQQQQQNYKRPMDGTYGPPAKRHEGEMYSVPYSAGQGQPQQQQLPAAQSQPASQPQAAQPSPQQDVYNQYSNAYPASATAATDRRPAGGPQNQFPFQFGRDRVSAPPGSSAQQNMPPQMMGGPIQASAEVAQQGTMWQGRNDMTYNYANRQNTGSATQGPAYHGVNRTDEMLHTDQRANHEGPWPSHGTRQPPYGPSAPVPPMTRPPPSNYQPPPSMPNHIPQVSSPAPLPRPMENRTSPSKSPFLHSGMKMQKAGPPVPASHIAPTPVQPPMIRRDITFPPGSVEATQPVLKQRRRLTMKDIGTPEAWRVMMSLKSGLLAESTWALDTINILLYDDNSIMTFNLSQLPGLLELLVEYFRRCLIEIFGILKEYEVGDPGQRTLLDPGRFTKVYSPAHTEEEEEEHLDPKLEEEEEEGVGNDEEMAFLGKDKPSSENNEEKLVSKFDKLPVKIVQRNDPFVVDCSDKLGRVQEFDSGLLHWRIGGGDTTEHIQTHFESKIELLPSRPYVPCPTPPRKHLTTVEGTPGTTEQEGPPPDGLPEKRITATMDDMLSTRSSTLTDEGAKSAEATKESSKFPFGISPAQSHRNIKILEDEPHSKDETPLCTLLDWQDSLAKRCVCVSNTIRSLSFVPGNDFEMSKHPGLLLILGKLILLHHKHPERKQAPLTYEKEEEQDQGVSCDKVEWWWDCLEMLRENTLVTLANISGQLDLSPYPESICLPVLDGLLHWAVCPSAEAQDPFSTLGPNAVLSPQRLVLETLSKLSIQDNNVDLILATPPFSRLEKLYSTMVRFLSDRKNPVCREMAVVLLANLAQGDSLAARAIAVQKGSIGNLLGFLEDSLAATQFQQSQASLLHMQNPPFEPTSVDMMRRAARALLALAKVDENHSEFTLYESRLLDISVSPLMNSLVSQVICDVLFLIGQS
UniProt O54941: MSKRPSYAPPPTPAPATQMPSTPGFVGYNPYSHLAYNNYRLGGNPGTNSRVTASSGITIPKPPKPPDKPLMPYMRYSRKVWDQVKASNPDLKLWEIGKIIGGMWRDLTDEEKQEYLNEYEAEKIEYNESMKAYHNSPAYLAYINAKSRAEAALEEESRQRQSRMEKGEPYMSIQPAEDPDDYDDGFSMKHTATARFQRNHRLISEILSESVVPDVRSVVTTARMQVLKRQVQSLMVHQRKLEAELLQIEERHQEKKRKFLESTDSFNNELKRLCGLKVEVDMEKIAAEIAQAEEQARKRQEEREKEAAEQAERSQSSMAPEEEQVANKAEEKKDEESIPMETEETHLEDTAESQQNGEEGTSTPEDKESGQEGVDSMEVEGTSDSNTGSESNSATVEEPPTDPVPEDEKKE
UniProt Q3TKT4: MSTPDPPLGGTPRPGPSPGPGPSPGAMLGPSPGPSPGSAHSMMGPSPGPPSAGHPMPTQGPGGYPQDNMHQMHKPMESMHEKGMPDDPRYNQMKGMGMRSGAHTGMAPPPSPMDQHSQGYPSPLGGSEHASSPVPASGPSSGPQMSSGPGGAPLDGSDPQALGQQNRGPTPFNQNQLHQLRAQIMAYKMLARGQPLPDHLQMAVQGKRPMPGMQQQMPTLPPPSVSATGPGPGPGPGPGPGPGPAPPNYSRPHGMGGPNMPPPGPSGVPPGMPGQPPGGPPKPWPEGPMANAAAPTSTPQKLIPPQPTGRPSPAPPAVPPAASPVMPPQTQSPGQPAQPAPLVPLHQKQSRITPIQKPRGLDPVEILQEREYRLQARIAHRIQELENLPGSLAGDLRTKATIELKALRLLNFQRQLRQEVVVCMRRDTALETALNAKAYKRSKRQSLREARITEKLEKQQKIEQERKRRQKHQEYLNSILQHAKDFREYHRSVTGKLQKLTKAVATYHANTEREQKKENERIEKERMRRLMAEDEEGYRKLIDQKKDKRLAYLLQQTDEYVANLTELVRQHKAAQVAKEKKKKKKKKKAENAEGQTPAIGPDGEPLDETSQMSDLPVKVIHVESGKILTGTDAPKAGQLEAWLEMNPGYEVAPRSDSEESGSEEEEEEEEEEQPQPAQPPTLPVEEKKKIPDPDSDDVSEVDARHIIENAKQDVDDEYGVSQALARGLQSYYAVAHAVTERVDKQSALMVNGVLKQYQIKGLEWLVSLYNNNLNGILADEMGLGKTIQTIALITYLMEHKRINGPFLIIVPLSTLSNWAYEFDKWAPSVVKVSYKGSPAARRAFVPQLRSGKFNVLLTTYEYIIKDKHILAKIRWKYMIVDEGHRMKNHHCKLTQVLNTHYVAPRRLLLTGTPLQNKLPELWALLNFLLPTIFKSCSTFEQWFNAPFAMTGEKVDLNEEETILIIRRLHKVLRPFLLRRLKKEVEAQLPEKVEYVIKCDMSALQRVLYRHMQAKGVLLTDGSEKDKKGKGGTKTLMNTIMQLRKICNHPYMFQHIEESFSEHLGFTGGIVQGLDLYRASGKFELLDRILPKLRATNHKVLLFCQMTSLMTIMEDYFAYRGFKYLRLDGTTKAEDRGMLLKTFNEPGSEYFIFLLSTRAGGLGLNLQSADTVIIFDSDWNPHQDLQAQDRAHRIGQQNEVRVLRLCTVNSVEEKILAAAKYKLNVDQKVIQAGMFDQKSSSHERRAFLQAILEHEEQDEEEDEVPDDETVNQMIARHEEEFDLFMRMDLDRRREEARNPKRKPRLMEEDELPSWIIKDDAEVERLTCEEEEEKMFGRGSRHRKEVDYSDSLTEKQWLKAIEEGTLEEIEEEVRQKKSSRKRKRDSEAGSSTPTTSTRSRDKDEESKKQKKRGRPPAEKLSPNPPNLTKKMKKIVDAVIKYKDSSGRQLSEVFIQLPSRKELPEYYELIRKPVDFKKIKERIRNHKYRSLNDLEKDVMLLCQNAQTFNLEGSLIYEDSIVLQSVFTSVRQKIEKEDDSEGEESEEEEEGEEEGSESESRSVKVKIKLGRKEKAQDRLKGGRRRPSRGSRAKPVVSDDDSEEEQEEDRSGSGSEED

The substances below were run against DPF2-FTAP (mouse (endogenous allele in E14 ESCs)) (UniProt Q61103) (assay: affinity purification with mass spectrometry; ESCs expressing DPF2-FTAP crosslinked with 1% formaldehyde for 10 min; high salt lysis buffer (450 mM NaCl, 0.2% Nonidet P-40), benzonase; anti-FLAG M2 Dynal beads in 150 mM NaCl, 0.1% NP-40, 90 min at 4°C; washes with RIPA and RIPA with 450 mM NaCl; elution with 3X FLAG peptide; control beta-gal-FTAP ESC line).

Row | Substance | binding
1 | ARID1A (from UniProt A2BH40 1-2283) | binds
2 | BAF57 [SMARCE1] (from UniProt O54941 1-411) | binds
3 | BRG1 [SMARCA4] (from UniProt Q3TKT4 1-1613) | binds
